Experimental data: PubChem BioAssay AID1224826 (NIAID, 2016)
Assay: 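Regulators of Tlr4 signalling leading to Tnf-alpha expression in macrophages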 (primary screen). Cells: RAW264.7 G9 macrophages from mouse bearing reporters for p65 (GFP) and the Tnf promoter (mCherry). Knock-down reagent: siRNA pool against mouse genes, 100 nM. Timing: 16 h of LPS stimulation, after 2 days of siRNA transfection. Treatment: bacterial lipopolysaccharide (Salmonella minnesota R595), 10 ng/ml. Detection: 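Nuclear mCherry signal of the Tnf promoter reporter measured by imaging after background removal, scaled to each plate median and turned into robust z-scores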. Direction: Tnf reporter robust z-score: higher = stronger Tnf promoter reporter signal after LPS; Tnf reporter intensity: higher = stronger Tnf promoter reporter signal. Active means: 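Called active when robust z-score is at most -1.3, matching the median of the Tlr4 knock-down control, or over 3; control wells and wells with under 50 cells never active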. Calls: active = Tnf reporter clearly lowered or raised; inactive = no clear change in Tnf reporter.
This is one part, drawn at random, of about 17,000 deposited reagents. About 1,110 of them (6.6%) count as active. 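Active means lowered or raised reporter signal; replicate intensities are raw and not normalised per plate.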 Further read-outs or replicates are left out here.

gene knocked down | Tnf reporter robust z-score | fewer than 50 cells in well | Tnf reporter intensity, replicate 1 | outcome
Asb11 (ankyrin repeat and SOCS box-containing 11) | -0.85 | enough cells in well | 128 | inactive
Wfdc15b (WAP four-disulfide core domain 15B) | 0.12 | enough cells in well | 122 | inactive
Ankrd24 (ankyrin repeat domain 24) | -1.38 | enough cells in well | 98.9 | active
Gpc2 (glypican 2 cerebroglycan) | -0.27 | enough cells in well | 318 | inactive
Abcc9 (ATP-binding cassette, sub-family C member 9) | -0.23 | enough cells in well | 149 | inactive
Tmem132a (transmembrane protein 132A) | -1.33 | enough cells in well | 133 | active
Vmn1r9 (vomeronasal 1 receptor 9) | -1.52 | enough cells in well | 62 | active
Cd300c2 (CD300C molecule 2) | 0.43 | enough cells in well | 287 | inactive
Kif2c (kinesin family member 2C) | 0.74 | enough cells in well | 306 | inactive
Slc13a4 | -0.28 | enough cells in well | 105 | inactive
Or2y16 (olfactory receptor family 2 subfamily Y member 16) | -1.18 | enough cells in well | 137 | inactive
Tm9sf2 (transmembrane 9 superfamily member 2) | -1.62 | enough cells in well | 47.7 | active
Ankrd16 (ankyrin repeat domain 16) | 0.74 | enough cells in well | 233 | inactive
Mlst8 (MTOR associated protein, LST8 homolog (S. cerevisiae)) | 0.93 | enough cells in well | 284 | inactive
Prr5l (proline rich 5 like) | -0.48 | enough cells in well | 210 | inactive
Krtap9-1 (keratin associated protein 9-1) | -1.79 | enough cells in well | 80.3 | active
Hycc2 (hyccin PI4KA lipid kinase complex subunit 2) | 1.69 | enough cells in well | 169 | inactive
Meaf6 (MYST/Esa1-associated factor 6) | -0.52 | enough cells in well | 157 | inactive
Cav1 (caveolin 1, caveolae protein) | -1.5 | enough cells in well | 124 | active
Gm4814 (predicted gene 4814) | -0.24 | enough cells in well | 145 | inactive
Or2ah1 (olfactory receptor family 2 subfamily AH member 1) | 0.01 | enough cells in well | 191 | inactive
Pts (6-pyruvoyl-tetrahydropterin synthase) | 0.61 | enough cells in well | 387 | inactive
Prss29 (serine protease 29) | -0.05 | enough cells in well | 198 | inactive
Taco1 | – | fewer than 50 cells per well; well left out of calls | 274 | inactive
